Reference: patent publication US6677466B1, “Method for stabilizing hydrogen peroxide” (DSM Fine Chemicals Austria NFG GmbH & Co KG, priority 1999, dated 2004)

Tests used:
[1] = [Mn2O3{Me3tacn}2](PF6)2-catalyzed epoxidation of cyclohexene with H2O2 in the presence of stabilizer, GC analysis
Protocol: (§1) 27.7 mg (0.035 mmol) of [Mn2O3{Me3tacn}2](PF6)2, 2.95 g (35.9 mmol) of cyclohexene, 1.79 g (17.5 mmol) of methyl pyruvate (MP) or 2.10 g (17.5 mmol) of GMHA and 5.14 g (35.0 mmol) of 1,3-dichlorobenzene were dissolved in 40 ml of acetonitrile. The resulting solution was cooled in an ice water bath and then 3.0 ml (52.5 mmol) of a 50% strength aqueous solution of H2O2 were added to the solution over the course of 3 hours. 15 minutes after the end of the H2O2 addition, the reaction mixture was analyzed by means of GC.
as §1, with “of acetonitrile. 1.4 ml of oxalate buffer (6 mol equivalent of oxalate based on the catalyst) were added to this solution. The resulting” for “of acetonitrile. The resulting”, “H2O2 were then added to” for “H2O2 were added to”
(§2) In variants a)-d), 1,3-dichlorobenzene was present during the reaction as an internal standard. The reaction mixtures were each analyzed with GC (Hewlett Packard 5890 series II; CpSil5CB column (25 m×0.32 mm, dl=1.2 μm). Temperature program: start temp.: 70° C., init. time: 1 min., rate: 7° C./min, final temp.: 250° C.)
as §1, with “cyclohexene, 1.05” for “cyclohexene, 1.79”, “g (8.75” for “g (17.5 mmol) of methyl pyruvate (MP) or 2.10 g (17.5”, “acetonitrile. 1.4 ml of oxalate buffer (6 mol equivalent of oxalate based on the catalyst) were added to this solution.” for “acetonitrile.”, “of 6” for “of 3”
as §2, with “Examples 4 and 5,” for “variants a)-d),”, “mixtures of Examples 4-6” for “mixtures”, “C.).” for “C.)”

[2] = [Mn2O3{Me3tacn}2](PF6)2-catalyzed oxidation of benzyl alcohol with H2O2 in the presence of stabilizer; settings: Example 6: 17.5 mmol stabilizer in t-butanol, H2O2 added over 4 hours
Protocol: 18.4 mg (0.023 mmol) of [Mn2O3{Me3tacn}2](PF6)2, 2.52 g (23.3 mmol) of benzyl alcohol and 2.10 g (17.5 mmol) of GMHA were dissolved in 40 ml of t-butanol. The resulting solution was cooled to room temperature in an ice water bath, and then 4.0 ml (70.3 mmol) of a 50% strength aqueous solution of H2O2 were added to the solution over the course of 4 hours.
The reaction mixture was diluted with 100 ml of diethyl ether, and the organic phase was extracted with 4×25 ml of water. 50 ml of an aqueous 0.5M NaOH solution were then added. Following the removal of the organic phase, the aqueous phase was extracted with 2×25 ml of diethyl ether. 100 ml of diethyl ether were then added, followed by 50 ml of aqueous 0.5M HCl solution. The organic phase was separated off and dried over sodium sulfate. Following removal of the solvent under reduced pressure, pure benzoic acid was isolated as a pale yellow solid.

[3] = [Mn2O3{Me3tacn}2](PF6)2-catalyzed epoxidation of styrene with H2O2 in the presence of stabilizer, GC analysis; settings: Example 5: styrene; 8.75 mmol stabilizer, oxalate buffer; H2O2 added over 6 hours
Protocol: 27.7 mg (0.035 mmol) of [Mn2O3{Me3tacn}2](PF6)2, 3.74 g (35.9 mmol) of styrene, 1.05 g (8.75 mmol) of GMHA and 5.14 g (35.0 mmol) of 1,3-dichlorobenzene were dissolved in 40 ml of acetonitrile. 1.4 ml of oxalate buffer (6 mol equivalent of oxalate based on the catalyst) were added to this solution. The resulting solution was cooled in an ice water bath and then 3.0 ml (52.5 mmol) of a 50% strength aqueous solution of H2O2 were added to the solution over the course of 6 hours. 15 minutes after the end of the H2O2 addition, the reaction mixture was analyzed by means of GC.
as §2, with “Examples 4 and 5,” for “variants a)-d),”, “mixtures of Examples 4-6” for “mixtures”, “C.).” for “C.)”

[4] = Example 4: 8.75 mmol stabilizer, oxalate buffer, H2O2 added over 6 hours
[5] = variant c: 17.5 mmol stabilizer, without oxalate buffer, H2O2 added over 3 hours
[6] = variant d: 17.5 mmol stabilizer and oxalate buffer, H2O2 added over 3 hours

Compound: COC(=O)C(O)OC (centres unmarked) [GMHA, glyoxylic methyl ester methyl hemiacetal]
- Conversion [1, 4]: 100%
- Selectivity [1, 4]: 81%
- Yield [1, 4]: 81%
- Conversion [1, 5]: 94%
- Selectivity [1, 5]: 64%
- Yield [1, 5]: 60%
- Conversion [1, 6]: 100%
- Selectivity [1, 6]: 76%
- Yield [1, 6]: 76%
- Yield of isolated benzoic acid [2]: 87%
- conversion of the benzyl alcohol ([2]; GC): quantitative conversion
- Conversion [3]: 88%
- Selectivity [3]: 78%
- Yield [3]: 69%

Compound: COC(=O)C(C)=O [methyl pyruvate]
- Conversion [1, 5]: 31%
- Selectivity [1, 5]: 45%
- Yield [1, 5]: 14%
- Conversion [1, 6]: 100%
- Selectivity [1, 6]: 68%
- Yield [1, 6]: 68%
